Results deposited as PubChem BioAssay AID1224830 (NIAID, 2016).

Purpose: 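Genes whose knock-down alters the TNF-alpha reporter response to LPS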 (primary screen)
Cells: human THP-1 monocytic leukaemia cells, TNF dual-luciferase reporter clone, PMA-differentiated to macrophage-like cells
Reagents: siRNA pool against human genes, 50 nM
Time to read-out: LPS for 4 h, given about 3 days after siRNA transfection
Challenge: bacterial LPS (TLR4 ligand), 10 ng/ml
Read-out: 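TNF firefly reporter luminescence divided by renilla, normalised to the plate median, then turned into a robust z-score for each replicate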
Direction: TNF reporter robust z-score: higher = stronger TNF reporter response to LPS
Call rule: 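Each well counts as active if its z-score is over 2.8 or under -1.5; controls are left without a call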
The deposit covers about 18,000 reagents; shown is a part drawn at random. About 2,900 of them (16%) count as active. 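Calls are made per well; low scores hint the gene aids the LPS response, high scores that it dampens it.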 Repeated entries: four replicate wells of each siRNA pool. Reagent sequences are not shown.

Target gene | TNF reporter robust z-score | outcome
TRMT13 (GeneID 54482) | 0.68 | inactive
TRMT13 (GeneID 54482) | 0.46 | inactive
TRMT13 (GeneID 54482) | 0.29 | inactive
TRMT13 (GeneID 54482) | -0.24 | inactive
HMCN2 (GeneID 256158) | -1.17 | inactive
HMCN2 (GeneID 256158) | -1.68 | active
HMCN2 (GeneID 256158) | -1.39 | inactive
HMCN2 (GeneID 256158) | -1.11 | inactive
URM1 (GeneID 81605) | -0.65 | inactive
URM1 (GeneID 81605) | -0.23 | inactive
URM1 (GeneID 81605) | -0.85 | inactive
URM1 (GeneID 81605) | -0.62 | inactive
TAS2R31 (GeneID 259290) | 0.26 | inactive
TAS2R31 (GeneID 259290) | 1.38 | inactive
TAS2R31 (GeneID 259290) | -0.56 | inactive
TAS2R31 (GeneID 259290) | 1.16 | inactive
RPIA (GeneID 22934) | 3.98 | active
RPIA (GeneID 22934) | 1.6 | inactive
RPIA (GeneID 22934) | 2.05 | inactive
RPIA (GeneID 22934) | 4.04 | active
MTG2 (GeneID 26164) | -0.71 | inactive
MTG2 (GeneID 26164) | -0.27 | inactive
MTG2 (GeneID 26164) | 0.18 | inactive
NFU1 (GeneID 27247) | 2.81 | active
NFU1 (GeneID 27247) | 2.26 | inactive
NFU1 (GeneID 27247) | 1.77 | inactive
NFU1 (GeneID 27247) | 2.59 | inactive
CLIP4 (GeneID 79745) | -0.75 | inactive
CLIP4 (GeneID 79745) | 0.2 | inactive
CLIP4 (GeneID 79745) | 1.74 | inactive
CLIP4 (GeneID 79745) | 0.56 | inactive
PSMD12 (GeneID 5718) | -1.21 | inactive
PSMD12 (GeneID 5718) | -1.71 | active
PSMD12 (GeneID 5718) | -1.03 | inactive
PSMD12 (GeneID 5718) | -0.88 | inactive
SMCO1 (GeneID 255798) | -0.04 | inactive
SMCO1 (GeneID 255798) | 0.06 | inactive
SMCO1 (GeneID 255798) | 0.13 | inactive
SMCO1 (GeneID 255798) | -0.62 | inactive
ANKRD20A1 (GeneID 84210) | -0.41 | inactive
ANKRD20A1 (GeneID 84210) | -0.02 | inactive
ANKRD20A1 (GeneID 84210) | -0.22 | inactive
ANKRD20A1 (GeneID 84210) | -1.05 | inactive
VPREB1 (GeneID 7441) | -0.41 | inactive
VPREB1 (GeneID 7441) | 0.43 | inactive
VPREB1 (GeneID 7441) | 0.23 | inactive
VPREB1 (GeneID 7441) | -0.69 | inactive
WNT3 (GeneID 7473) | -0.02 | inactive
WNT3 (GeneID 7473) | 1.05 | inactive
WNT3 (GeneID 7473) | 2.03 | inactive
WNT3 (GeneID 7473) | 1.93 | inactive
HAPLN3 (GeneID 145864) | 2.89 | active
HAPLN3 (GeneID 145864) | 4.53 | active
HAPLN3 (GeneID 145864) | 3.37 | active
HAPLN3 (GeneID 145864) | 2.07 | inactive
FCRLA (GeneID 84824) | 1.42 | inactive
FCRLA (GeneID 84824) | 1.05 | inactive
FCRLA (GeneID 84824) | 0.53 | inactive
FCRLA (GeneID 84824) | 1.19 | inactive
BAIAP2 (GeneID 10458) | 0.72 | inactive
BAIAP2 (GeneID 10458) | 2.13 | inactive
BAIAP2 (GeneID 10458) | 1.66 | inactive
BAIAP2 (GeneID 10458) | 2.52 | inactive
PGAM5 (GeneID 192111) | -0.82 | inactive
PGAM5 (GeneID 192111) | -0.97 | inactive
PGAM5 (GeneID 192111) | -0.53 | inactive
PGAM5 (GeneID 192111) | -1.19 | inactive
HNMT (GeneID 3176) | -0.61 | inactive
HNMT (GeneID 3176) | 0.99 | inactive
HNMT (GeneID 3176) | 0.23 | inactive
HNMT (GeneID 3176) | 0.72 | inactive
TERF1 (GeneID 7013) | 1.65 | inactive
TERF1 (GeneID 7013) | 0.79 | inactive
TERF1 (GeneID 7013) | 0.59 | inactive
TERF1 (GeneID 7013) | 1.99 | inactive
